No constants are given. Whether binding was seen depends on the method and setting. In cells and extracts the contact can be indirect. Some binding calls cover weakened binding; strength is not graded here.
Molecular target: NF-κB inhibitor alpha (IκB-α) (rat (endogenous in spinal dorsal horn)) (UniProt Q63746)
Assay: co-IP; IP with IκB-α antibody from rat spinal dorsal horn lysate (300 μg protein, 4 °C overnight), magnetic beads, immunoblot with P65 antibody; rats treated with vehicle or oxaliplatin, with or without intraspinal AAV-MT2A-EGFP or AAV-EGFP

Amino acid sequences for entries named in this document (tags omitted).
UniProt Q63746: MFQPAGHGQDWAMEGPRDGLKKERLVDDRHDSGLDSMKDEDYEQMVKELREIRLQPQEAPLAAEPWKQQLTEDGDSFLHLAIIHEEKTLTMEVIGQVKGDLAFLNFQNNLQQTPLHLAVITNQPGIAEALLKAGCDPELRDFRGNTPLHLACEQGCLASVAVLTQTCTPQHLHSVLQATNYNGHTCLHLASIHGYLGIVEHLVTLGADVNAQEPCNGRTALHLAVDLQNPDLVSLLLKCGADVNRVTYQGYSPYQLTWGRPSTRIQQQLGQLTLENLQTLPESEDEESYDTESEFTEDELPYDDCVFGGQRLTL
UniProt Q7TQN4: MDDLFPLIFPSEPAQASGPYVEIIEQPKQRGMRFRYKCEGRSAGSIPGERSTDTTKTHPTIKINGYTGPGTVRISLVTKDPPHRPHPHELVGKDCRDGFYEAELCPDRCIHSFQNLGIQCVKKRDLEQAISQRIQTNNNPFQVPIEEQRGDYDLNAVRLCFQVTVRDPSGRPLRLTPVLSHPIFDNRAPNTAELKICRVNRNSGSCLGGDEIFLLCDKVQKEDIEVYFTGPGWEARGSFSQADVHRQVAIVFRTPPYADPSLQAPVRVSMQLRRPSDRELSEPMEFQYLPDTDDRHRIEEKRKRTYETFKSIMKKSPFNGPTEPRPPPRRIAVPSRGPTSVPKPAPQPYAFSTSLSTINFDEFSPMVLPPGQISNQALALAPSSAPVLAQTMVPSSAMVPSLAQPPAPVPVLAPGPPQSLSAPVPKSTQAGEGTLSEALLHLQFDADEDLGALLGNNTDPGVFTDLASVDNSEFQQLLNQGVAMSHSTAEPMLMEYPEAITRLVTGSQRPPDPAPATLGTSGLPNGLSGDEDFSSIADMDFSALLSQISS

- binding: binds
Substance: NF-κB p65 subunit (from UniProt Q7TQN4 1-550)
